Data source: PubChem BioAssay AID1259308 (NCATS, 2017)
Test: 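Knock-downs that increase output of a recombinant reporter protein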 (primary screen). Cell system: human HEK293 embryonic kidney cells stably expressing firefly luciferase (HEK-CMV-Luc2-Hygro). Reagents: single siRNA against human genes, 0.8 pmol siRNA per well. Timing: 72 h. Measurement: 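Luciferase light (ONE-Glo) measured on one replicate plate set and viability (CellTiter-Glo) on the other, scaled to a negative control siRNA, with robust z-scores and luciferase per cell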. Direction: total luciferase, z-score: higher = more reporter protein produced. Active means: 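An siRNA counts as active if its total luciferase robust z-score exceeds 3; genes with two or more such siRNAs out of three were retested with fresh siRNAs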. Calls: active = raised luciferase; inactive = no rise.
Shown is one part, drawn at random, of about 59,000 deposited reagents. About 1,510 of all reagents (2.6%) were called active. 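Calls use total luciferase alone and ignore viability, so some active siRNAs may act by altering cell number.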 Reagents against one gene are numbered here. Not all columns of the deposit are shown.

{"gene symbol": "SERPINB11", "reagent": 1, "total luciferase, z-score": -0.512, "outcome": "inactive"}
{"gene symbol": "SERPINB11", "reagent": 2, "total luciferase, z-score": -1.16, "outcome": "inactive"}
{"gene symbol": "SERPINB11", "reagent": 3, "total luciferase, z-score": -0.647, "outcome": "inactive"}
{"gene symbol": "COPS4", "reagent": 1, "total luciferase, z-score": -2.73, "outcome": "inactive"}
{"gene symbol": "COPS4", "reagent": 2, "total luciferase, z-score": -0.78, "outcome": "inactive"}
{"gene symbol": "COPS4", "reagent": 3, "total luciferase, z-score": -0.0481, "outcome": "inactive"}
{"gene symbol": "YWHAEP7", "reagent": 1, "total luciferase, z-score": -0.148, "outcome": "inactive"}
{"gene symbol": "YWHAEP7", "reagent": 2, "total luciferase, z-score": 2.42, "outcome": "inactive"}
{"gene symbol": "YWHAEP7", "reagent": 3, "total luciferase, z-score": -0.123, "outcome": "inactive"}
{"gene symbol": "TSPYL4", "reagent": 1, "total luciferase, z-score": -1.09, "outcome": "inactive"}
{"gene symbol": "TSPYL4", "reagent": 2, "total luciferase, z-score": 0.683, "outcome": "inactive"}
{"gene symbol": "TSPYL4", "reagent": 3, "total luciferase, z-score": -0.234, "outcome": "inactive"}
{"gene symbol": "NAA25", "reagent": 1, "total luciferase, z-score": 2.88, "outcome": "inactive"}
{"gene symbol": "NAA25", "reagent": 2, "total luciferase, z-score": 0.293, "outcome": "inactive"}
{"gene symbol": "NAA25", "reagent": 3, "total luciferase, z-score": -0.491, "outcome": "inactive"}
{"gene symbol": "CD80", "reagent": 1, "total luciferase, z-score": 0.718, "outcome": "inactive"}
{"gene symbol": "CD80", "reagent": 2, "total luciferase, z-score": -0.933, "outcome": "inactive"}
{"gene symbol": "CD80", "reagent": 3, "total luciferase, z-score": 0.00111, "outcome": "inactive"}
{"gene symbol": "FBLN2", "reagent": 1, "total luciferase, z-score": 0.981, "outcome": "inactive"}
{"gene symbol": "FBLN2", "reagent": 2, "total luciferase, z-score": -3.44, "outcome": "inactive"}
{"gene symbol": "FBLN2", "reagent": 3, "total luciferase, z-score": -0.969, "outcome": "inactive"}

The list goes on, starting with the last 2 of the part before.
{"gene symbol": "FBLN2", "reagent": 2, "total luciferase, z-score": -3.44, "outcome": "inactive"}
{"gene symbol": "FBLN2", "reagent": 3, "total luciferase, z-score": -0.969, "outcome": "inactive"}
{"gene symbol": "RPL12", "reagent": 1, "total luciferase, z-score": -1.1, "outcome": "inactive"}
{"gene symbol": "RPL12", "reagent": 2, "total luciferase, z-score": -2.35, "outcome": "inactive"}
{"gene symbol": "RPL12", "reagent": 3, "total luciferase, z-score": 0.0885, "outcome": "inactive"}
{"gene symbol": "FTH1", "reagent": 1, "total luciferase, z-score": 0.141, "outcome": "inactive"}
{"gene symbol": "FTH1", "reagent": 2, "total luciferase, z-score": -0.00563, "outcome": "inactive"}
{"gene symbol": "FTH1", "reagent": 3, "total luciferase, z-score": -0.291, "outcome": "inactive"}
{"gene symbol": "RNF44", "reagent": 1, "total luciferase, z-score": 2.84, "outcome": "inactive"}
{"gene symbol": "RNF44", "reagent": 2, "total luciferase, z-score": 0.869, "outcome": "inactive"}
{"gene symbol": "RNF44", "reagent": 3, "total luciferase, z-score": -0.219, "outcome": "inactive"}
{"gene symbol": "TUBD1", "reagent": 1, "total luciferase, z-score": -1.89, "outcome": "inactive"}
{"gene symbol": "TUBD1", "reagent": 2, "total luciferase, z-score": 0.0681, "outcome": "inactive"}
{"gene symbol": "TUBD1", "reagent": 3, "total luciferase, z-score": 0.445, "outcome": "inactive"}
